Data reported in PubChem BioAssay (Tox21).
The inconclusive results got no clear call from the source; some entries with a clear call stand among them for comparison. For some of these results: Where the call is inconclusive, the potency comes from a doubtful curve fit. Active and inactive are the calls of the source. Unless noted, the call rests on the fitted dose curve.

Chains of the proteins cited; added tags and fusions are not shown.
UniProt P28223, whole entry, looked up: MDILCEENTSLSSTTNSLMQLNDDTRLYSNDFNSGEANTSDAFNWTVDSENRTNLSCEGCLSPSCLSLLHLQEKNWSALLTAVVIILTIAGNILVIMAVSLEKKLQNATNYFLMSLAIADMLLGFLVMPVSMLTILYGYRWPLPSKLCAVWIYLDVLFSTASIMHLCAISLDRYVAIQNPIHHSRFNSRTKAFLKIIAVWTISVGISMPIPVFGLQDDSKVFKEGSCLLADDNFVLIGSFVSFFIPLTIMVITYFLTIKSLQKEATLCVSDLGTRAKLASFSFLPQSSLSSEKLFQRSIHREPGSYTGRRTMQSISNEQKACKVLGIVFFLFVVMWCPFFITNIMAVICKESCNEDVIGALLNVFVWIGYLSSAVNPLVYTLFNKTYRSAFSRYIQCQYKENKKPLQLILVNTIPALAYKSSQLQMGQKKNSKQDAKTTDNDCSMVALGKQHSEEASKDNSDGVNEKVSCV
UniProt P14416, whole entry, looked up: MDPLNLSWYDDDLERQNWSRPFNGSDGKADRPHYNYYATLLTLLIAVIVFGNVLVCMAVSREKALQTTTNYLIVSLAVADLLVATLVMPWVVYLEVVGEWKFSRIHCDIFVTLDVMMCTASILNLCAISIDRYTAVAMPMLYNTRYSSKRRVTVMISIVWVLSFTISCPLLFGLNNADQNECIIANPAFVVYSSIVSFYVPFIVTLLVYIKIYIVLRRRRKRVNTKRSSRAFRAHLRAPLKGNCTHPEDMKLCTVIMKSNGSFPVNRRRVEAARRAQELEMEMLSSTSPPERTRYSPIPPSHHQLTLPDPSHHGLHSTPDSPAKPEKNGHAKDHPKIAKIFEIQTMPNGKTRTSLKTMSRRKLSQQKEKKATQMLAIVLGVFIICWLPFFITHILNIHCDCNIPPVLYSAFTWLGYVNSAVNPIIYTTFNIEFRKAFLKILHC

Assays:
[1] = target: 5-hydroxytryptamine receptor 2A (Homo sapiens) (UniProt P28223); test: 5-hydroxytryptamine receptor 2A (HTR2A) small molecule antagonists, cell-based qHTS assay (AID 1963586); settings: HTR2A-CHO cells, DOI-induced calcium flux, fluorescence; series mostly up to 61.5 µM; further: potency means the concentration at half of the fitted maximal effect; nearly all actives have a fitted effect of over 45% in size
How it was run: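 CHO cells stably expressing human HTR2A were plated for 18 h at 37 C, then loaded with calcium dye for 1 h. Compounds were preincubated 5 min at room temperature before DOI (4 nM solution) was added. Kinetic fluorescence was read for 3 min.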

[2] = target: Beta-2 adrenergic receptor (Homo sapiens) (UniProt P07550); test: Adrenergic beta2 receptor (ADRB2) small molecule agonists, cell-based qHTS assay (AID 1963593); settings: CHO-ADRB2 cells, cAMP HTRF, 30 min; activation: at 92.4 µM (top of the series) unless noted;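 further: CHO cells stably overexpressing human ADRB2; on the % scale 0 is the no-effect control and ±100 the full control effect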
How it was run: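 CHO cells stably over-expressing ADRB2 were plated overnight at 37C, then dosed with compounds plus a stimulation mix containing 100uM IBMX and 25uM Ro-20-1724 for 0.5hr at room temperature. cAMP was measured by HTRF competition, 1hr.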

[3] = target: D(2) dopamine receptor (Homo sapiens) (UniProt P14416); test: Dopamine D2 receptor (DRD2) small molecule antagonists, cell-based qHTS assay (AID 1963595; active means well fitted inhibition curve with a large enough effect in the signal ratio in the repeat runs, with a control signal flat; inconclusive means weak or mixed curves, or effect the other way; the % refers to the signal ratio; further: potency means the concentration at half of the fitted maximal effect; on activity change, negative = inhibition: on the % scale 0 is the no-effect control and ±100 the full control effect); settings: HEK293-DRD2 cAMP HTRF antagonist mode; activity change, negative = inhibition: at 92.4 µM (top of the series) unless noted
How it was run: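 Human DRD2 antagonist qHTS measuring cAMP by HTRF. The cells are exposed to compound for 10 min, then to NKH477 (200 nM) and quinpirole (12 nM) for 30 min at RT, with Ro20-1724 (0.1 mM) present throughout.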

[4] = target: D(2) dopamine receptor (Homo sapiens) (UniProt P14416); test: Dopamine D2 receptor (DRD2) small molecule agonists, cell-based qHTS assay (AID 1963594); settings: HEK293-DRD2 cAMP HTRF, agonist mode, 30 min; activation: at 92.4 µM (top of the series) unless noted; further: potency means the concentration at half of the fitted maximal effect; nearly all actives have a fitted effect of over 35% in size
How it was run: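 HEK293 cells stably expressing human DRD2, pre-treated with PDE inhibitor Ro20-1724 (0.1 mM final) and compound 10 min at room temperature, then stimulated with NKH477 (200nM […]) for 30 min. cAMP read by HTRF (665/620 nm).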

SMILES	Potency [1]	activation [2]	Potency [3]	Potency [2]	Potency [4]	activity change, negative = inhibition [3]
CCCCCCCCOCCCN	inconclusive: 6.67 µM [inhibitor, partial curve, poor fit]	inconclusive: 15.6%	inconclusive: 38.6 µM [inhibitor]			
CCCCCCCC/C=C\CCCCCCCC(=O)OC[C@@H](O)[C@H]1OC[C@H](O)[C@H]1O	inconclusive: 14.9 µM [inhibitor, partial curve, poor fit]		inconclusive: 24.3 µM [falling, partial curve, poor fit]	inactive	inconclusive: 9.69 µM [falling, single point]	
O=C1[C@@H]2[C@H]3CC[C@H](C3)[C@@H]2C(=O)N1CCCCN1CCN(c2ncccn2)CC1	inconclusive: 11.6 µM [inhibitor]				active: 0.0944 µM	inconclusive: -5.36% [at 42.5 µM]
